Measured values from the supplement of paper PMC10849652.
The other results are listed elsewhere or left out.

Sequences of proteins named here, by UniProt entry; tags and fusion partners are left off. A change or cut given only in a name is not applied to a line headed by its entry.
UniProt Q13576: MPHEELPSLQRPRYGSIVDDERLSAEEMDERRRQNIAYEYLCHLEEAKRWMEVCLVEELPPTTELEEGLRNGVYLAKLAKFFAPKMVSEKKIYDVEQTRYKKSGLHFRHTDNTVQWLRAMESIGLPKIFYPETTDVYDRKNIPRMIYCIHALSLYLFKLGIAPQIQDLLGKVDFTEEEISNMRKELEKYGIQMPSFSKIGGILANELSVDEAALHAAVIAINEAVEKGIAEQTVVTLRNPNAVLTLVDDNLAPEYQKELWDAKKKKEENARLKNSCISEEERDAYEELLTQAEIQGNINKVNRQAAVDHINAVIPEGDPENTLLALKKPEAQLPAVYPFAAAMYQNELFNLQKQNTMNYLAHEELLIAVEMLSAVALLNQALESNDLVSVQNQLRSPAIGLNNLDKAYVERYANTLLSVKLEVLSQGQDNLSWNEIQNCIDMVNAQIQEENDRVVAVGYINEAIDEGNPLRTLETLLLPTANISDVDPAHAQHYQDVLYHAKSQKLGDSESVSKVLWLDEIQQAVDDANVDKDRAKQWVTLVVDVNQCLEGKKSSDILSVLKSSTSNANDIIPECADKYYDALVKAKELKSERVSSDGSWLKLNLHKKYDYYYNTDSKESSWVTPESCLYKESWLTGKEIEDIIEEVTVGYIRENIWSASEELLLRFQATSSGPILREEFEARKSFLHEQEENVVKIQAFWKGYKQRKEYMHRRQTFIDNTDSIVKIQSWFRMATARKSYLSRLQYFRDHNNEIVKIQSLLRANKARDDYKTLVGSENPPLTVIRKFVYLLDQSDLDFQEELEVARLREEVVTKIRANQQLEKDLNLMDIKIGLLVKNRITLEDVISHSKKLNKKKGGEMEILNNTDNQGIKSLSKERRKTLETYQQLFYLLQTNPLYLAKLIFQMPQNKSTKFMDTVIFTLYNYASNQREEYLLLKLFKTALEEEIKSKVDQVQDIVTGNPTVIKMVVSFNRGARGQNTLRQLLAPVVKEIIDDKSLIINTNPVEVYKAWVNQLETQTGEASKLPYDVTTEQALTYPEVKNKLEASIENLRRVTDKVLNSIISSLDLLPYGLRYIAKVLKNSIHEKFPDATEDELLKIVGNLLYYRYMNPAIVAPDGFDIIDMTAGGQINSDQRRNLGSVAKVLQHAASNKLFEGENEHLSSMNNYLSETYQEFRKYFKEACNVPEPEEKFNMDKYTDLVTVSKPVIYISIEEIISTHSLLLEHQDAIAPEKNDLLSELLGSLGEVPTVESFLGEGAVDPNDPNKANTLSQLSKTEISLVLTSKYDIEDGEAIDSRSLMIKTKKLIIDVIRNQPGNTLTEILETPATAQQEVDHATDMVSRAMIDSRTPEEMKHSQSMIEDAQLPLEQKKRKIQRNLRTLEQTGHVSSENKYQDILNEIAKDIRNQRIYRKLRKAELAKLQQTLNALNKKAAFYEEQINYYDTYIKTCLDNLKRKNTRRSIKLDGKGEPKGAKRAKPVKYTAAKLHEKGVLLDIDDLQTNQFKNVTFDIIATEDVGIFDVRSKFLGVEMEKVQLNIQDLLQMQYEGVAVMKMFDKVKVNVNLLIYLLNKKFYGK
UniProt Q9NV31: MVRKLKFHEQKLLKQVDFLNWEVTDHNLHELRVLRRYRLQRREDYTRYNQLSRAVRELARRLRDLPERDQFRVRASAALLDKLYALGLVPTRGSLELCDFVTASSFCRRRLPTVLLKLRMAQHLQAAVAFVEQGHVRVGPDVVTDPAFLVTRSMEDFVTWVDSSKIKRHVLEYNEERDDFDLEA
UniProt Q9ULR0: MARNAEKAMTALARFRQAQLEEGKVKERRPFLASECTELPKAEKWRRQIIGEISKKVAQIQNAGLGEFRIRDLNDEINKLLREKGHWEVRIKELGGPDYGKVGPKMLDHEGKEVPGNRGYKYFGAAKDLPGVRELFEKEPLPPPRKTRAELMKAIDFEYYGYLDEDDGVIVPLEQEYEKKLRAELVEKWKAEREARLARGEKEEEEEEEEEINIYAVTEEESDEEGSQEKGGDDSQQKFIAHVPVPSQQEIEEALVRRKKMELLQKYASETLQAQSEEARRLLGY
UniProt P05161, whole entry, looked up: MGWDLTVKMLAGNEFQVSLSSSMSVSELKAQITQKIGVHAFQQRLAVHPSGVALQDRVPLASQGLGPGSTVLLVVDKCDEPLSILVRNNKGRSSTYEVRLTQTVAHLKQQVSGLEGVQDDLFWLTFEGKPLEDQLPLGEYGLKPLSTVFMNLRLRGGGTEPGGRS
UniProt Q969R8: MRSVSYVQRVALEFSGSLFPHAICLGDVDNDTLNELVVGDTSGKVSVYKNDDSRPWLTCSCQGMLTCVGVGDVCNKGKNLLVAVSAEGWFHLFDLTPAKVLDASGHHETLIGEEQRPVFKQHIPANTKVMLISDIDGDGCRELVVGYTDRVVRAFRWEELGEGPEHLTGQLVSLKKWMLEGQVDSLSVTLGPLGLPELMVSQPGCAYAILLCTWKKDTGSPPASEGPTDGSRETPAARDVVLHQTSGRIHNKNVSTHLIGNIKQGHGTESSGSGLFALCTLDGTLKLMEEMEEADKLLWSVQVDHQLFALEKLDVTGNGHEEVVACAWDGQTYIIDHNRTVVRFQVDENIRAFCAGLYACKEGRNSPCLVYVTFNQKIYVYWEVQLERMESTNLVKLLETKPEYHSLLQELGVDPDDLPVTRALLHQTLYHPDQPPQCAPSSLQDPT
UniProt Q9Y6K9, whole entry, looked up: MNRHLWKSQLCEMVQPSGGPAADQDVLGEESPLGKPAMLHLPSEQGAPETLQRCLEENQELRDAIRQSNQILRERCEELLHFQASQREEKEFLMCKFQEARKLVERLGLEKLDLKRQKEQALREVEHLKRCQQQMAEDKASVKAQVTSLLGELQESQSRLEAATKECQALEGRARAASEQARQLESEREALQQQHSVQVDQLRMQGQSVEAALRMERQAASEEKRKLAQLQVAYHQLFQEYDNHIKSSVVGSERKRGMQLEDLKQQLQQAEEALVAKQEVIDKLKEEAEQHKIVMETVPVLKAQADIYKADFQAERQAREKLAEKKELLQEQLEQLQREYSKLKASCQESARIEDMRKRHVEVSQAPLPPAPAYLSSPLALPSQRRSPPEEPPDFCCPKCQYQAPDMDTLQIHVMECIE
UniProt Q12905: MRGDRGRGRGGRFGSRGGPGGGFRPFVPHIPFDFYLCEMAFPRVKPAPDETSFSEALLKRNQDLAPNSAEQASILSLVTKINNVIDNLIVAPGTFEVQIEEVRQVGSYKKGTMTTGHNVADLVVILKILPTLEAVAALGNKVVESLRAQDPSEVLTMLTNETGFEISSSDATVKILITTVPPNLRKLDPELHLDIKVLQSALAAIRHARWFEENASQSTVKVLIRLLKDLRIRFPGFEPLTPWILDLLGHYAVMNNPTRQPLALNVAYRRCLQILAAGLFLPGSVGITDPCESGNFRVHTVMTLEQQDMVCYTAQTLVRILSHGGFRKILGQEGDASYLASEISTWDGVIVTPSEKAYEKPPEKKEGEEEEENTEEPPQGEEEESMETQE
UniProt Q13422: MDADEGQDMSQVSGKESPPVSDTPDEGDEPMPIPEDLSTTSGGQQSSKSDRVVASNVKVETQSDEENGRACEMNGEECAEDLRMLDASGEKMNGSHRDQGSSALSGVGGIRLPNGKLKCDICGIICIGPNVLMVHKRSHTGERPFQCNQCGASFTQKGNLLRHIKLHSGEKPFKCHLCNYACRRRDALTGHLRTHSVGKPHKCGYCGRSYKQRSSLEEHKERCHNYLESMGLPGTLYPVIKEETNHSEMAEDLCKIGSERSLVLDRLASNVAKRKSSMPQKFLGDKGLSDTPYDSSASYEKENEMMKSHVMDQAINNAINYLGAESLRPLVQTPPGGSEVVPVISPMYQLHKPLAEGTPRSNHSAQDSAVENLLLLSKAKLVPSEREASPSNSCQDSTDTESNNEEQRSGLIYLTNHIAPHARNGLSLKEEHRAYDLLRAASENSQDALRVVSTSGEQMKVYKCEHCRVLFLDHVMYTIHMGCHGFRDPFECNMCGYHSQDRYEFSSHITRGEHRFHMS
UniProt O14732: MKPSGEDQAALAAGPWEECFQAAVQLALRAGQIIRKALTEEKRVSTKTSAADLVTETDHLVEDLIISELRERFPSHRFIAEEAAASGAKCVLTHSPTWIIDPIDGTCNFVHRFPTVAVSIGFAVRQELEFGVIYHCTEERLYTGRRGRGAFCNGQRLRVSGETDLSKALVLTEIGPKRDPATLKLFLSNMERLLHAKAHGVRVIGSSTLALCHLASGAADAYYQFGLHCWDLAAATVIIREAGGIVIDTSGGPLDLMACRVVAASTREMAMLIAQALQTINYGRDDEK
UniProt Q9Y573: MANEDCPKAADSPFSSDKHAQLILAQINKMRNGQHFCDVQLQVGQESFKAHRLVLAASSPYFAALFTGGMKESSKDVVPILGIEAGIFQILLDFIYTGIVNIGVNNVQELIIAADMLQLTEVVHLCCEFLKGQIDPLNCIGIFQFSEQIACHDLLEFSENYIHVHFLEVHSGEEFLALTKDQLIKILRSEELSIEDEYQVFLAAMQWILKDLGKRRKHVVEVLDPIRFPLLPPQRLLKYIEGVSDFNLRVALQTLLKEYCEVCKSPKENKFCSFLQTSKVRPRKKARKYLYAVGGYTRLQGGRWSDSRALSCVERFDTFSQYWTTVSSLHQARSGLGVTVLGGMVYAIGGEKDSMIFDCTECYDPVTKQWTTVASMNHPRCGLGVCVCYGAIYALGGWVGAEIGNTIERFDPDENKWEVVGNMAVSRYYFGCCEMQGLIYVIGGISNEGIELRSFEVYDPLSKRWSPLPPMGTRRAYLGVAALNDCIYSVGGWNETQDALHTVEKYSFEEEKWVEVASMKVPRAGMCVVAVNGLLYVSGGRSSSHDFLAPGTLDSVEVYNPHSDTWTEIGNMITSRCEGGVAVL
UniProt O75874, whole entry, looked up: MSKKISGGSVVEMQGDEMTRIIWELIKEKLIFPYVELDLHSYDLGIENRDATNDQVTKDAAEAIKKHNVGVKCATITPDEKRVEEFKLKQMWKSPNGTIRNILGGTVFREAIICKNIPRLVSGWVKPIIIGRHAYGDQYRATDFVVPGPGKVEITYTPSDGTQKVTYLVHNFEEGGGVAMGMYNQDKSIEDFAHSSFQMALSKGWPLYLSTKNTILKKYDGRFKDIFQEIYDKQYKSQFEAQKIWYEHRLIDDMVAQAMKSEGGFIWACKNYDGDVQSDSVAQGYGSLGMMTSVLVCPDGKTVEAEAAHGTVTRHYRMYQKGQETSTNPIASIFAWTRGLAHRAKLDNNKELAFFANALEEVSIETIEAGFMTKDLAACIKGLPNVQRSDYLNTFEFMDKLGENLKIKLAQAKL
UniProt P49441: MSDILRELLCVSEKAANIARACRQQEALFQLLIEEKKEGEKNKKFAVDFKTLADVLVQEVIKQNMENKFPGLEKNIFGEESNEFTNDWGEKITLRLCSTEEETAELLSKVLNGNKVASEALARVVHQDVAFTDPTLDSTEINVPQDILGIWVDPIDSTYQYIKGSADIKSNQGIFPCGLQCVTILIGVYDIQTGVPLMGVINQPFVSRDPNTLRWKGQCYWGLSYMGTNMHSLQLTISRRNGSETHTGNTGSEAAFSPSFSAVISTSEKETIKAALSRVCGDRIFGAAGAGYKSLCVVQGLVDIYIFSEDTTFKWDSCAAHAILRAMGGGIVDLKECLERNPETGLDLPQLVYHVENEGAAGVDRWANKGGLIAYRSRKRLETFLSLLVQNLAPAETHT
UniProt O14920: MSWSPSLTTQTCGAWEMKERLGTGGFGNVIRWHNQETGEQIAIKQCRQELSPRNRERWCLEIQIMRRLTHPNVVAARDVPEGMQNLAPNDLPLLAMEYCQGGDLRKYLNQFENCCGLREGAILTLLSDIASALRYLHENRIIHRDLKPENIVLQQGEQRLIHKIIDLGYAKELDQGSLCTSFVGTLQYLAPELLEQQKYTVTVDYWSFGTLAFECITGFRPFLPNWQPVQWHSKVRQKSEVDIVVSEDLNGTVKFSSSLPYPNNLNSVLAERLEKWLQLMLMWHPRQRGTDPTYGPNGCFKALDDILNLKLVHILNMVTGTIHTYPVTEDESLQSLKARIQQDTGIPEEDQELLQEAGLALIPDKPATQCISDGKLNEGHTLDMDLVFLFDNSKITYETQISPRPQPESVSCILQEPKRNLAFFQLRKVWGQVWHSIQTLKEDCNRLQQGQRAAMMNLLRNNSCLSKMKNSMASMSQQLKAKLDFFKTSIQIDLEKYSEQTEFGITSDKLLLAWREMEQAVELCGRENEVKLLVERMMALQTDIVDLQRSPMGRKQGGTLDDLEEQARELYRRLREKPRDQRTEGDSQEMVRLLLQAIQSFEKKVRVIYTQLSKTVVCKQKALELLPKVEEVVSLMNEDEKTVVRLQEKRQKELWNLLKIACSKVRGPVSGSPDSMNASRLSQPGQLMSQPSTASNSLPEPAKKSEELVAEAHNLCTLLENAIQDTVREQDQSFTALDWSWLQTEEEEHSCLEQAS

Compound: C1=CC=C(C=C1)[C@H](COC2=CC3=C(C=C2)NC(=O)N3)NC(=O)C4=CC=CN(C4=O)CC5=CC(=C(C=C5)F)F
Assay: log2 fold change, soluble protein after heating vs DMSO (PISA); higher = thermal stabilisation; K562 cells, 10 uM, 30 min; active = over 0.2 and 3.5 SD of the protein, either way, in both replicates (recomputed)
In short: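 K562 cells at 2×10^6 cells/mL were given 10 μM compound for 30 min. Aliquots then went through 3 min of heating across 48°C-58°C, were pooled, and were extracted in PBS with 0.5% NP-40 at 4°C, and the supernatant after 21,000xg for 90 min was quantified by TMTpro 16plex LC-MS/MS with channel sums equalised. Thermal stability relative to control samples, from duplicates, is given as log2 fold change.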

| Target | log2 fold change |
| --- | --- |
| IQGAP2 (UniProt Q13576) | inactive: -0.039 |
| ILF3 (UniProt Q12906) | inactive: 0.06 |
| ITPK1 (UniProt Q13572) | inactive: -0.017 |
| IL23R (UniProt Q5VWK5) | inactive: -0.324 |
| IMP3 (UniProt Q9NV31) | inactive: 0.199 |
| IKBIP (UniProt Q70UQ0) | inactive: 0.034 |
| ISY1 isoform 1 (UniProt Q9ULR0) | inactive: 0.047 |
| ISG15 (UniProt P05161) | inactive: -0.044 |
| ITFG2 (UniProt Q969R8) | inactive: 0.084 |
| IKBKG isoform 2 (UniProt Q9Y6K9) | inactive: 0.049 |
| ILF2 (UniProt Q12905) | inactive: 0.047 |
| IKZF1 isoform 2 (UniProt Q13422) | inactive: 0.335 |
| IPO7 (UniProt O95373) | inactive: -0.082 |
| IST1 isoform 5 (UniProt P53990) | inactive: -0.057 |
| IMPA2 (UniProt O14732) | inactive: -0.018 |
| IPP (UniProt Q9Y573) | inactive: 0.065 |
| IDH1 (UniProt O75874) | inactive: 0.008 |
| INPP1 (UniProt P49441) | inactive: -0.017 |
| IKBKB (UniProt O14920) | inactive: 0.1 |
| IMPA1 (UniProt E5RIP7) | inactive: -0.111 |
| IKZF1 (UniProt Q13422) | inactive: -0.011 |
| IL18R1 (UniProt Q13478) | inactive: 0.016 |
| IFT74 (UniProt Q96LB3) | inactive: 0.134 |

Reformatted: entries from further up.
IST1 isoform 5 (UniProt P53990)
  log2 fold change: inactive: -0.057
INPP1 (UniProt P49441)
  log2 fold change: inactive: -0.017
